Some compounds share one wording; it may come from a single statement.
What was measured:
[1] = Curing an unsaturated polyester-styrene resin; details: for cure of the resin, in words: hardness of the cured resin / gelling
[2] = Emulsion polymerization of ethyl acrylate; details: 3.65 × 10^-^4 moles initiator, 85°-87° C.; listed as α-tert-butylazo-α-methyl-γ-carboxy-butyronitrile
[3] = Oxidation of iodide ion to free iodine
[4] = 180° F. (82.2° C.), 1.0 weight per cent loading
[5] = 212° F. (100° C.), 1.0 weight per cent loading
[6] = 240° F. (115.6° C.), 1.0 weight per cent loading
[7] = 265° F. (129.4° C.), 1.0 weight per cent loading

CC(C)(C)N=NC(C)(C)C#N [Example I, Alpha-(tert.-butylazo) isobutyronitrile]
time to peak exotherm ([1]; 212° F. (100° C.), 0.128 gram in 20 grams of blend): 4.9 min
cure of the resin, in words [1]: vary hard

CC(C)CC(C#N)(CC(C)C)N=NC(C)(C)C [Example VII, 4-tert.-butylazo-4-cyano-2,6-dimethylheptane]
time to peak exotherm [1, 4]: 2.8 min
cure of the resin, in words [1]: very hard

CC(C)(C)N=NC(C)(C#N)CCC(=O)O (stereo not drawn) [Example X, alpha-tert.-butylazo-alpha-methyl-gamma-carboxybutyronitrile]
conversion of monomer to polymer [2]: 94%
peak exotherm [1, 4]: 410 ° F.
time to peak exotherm [1, 4]: 8.5 min
time to peak exotherm [1, 5]: 3.8 min
cure of the resin, in words [1]: very hard

CC(C)(C#N)N=NC(C)(C)c1ccccc1 [Example XI, Alpha-(tert.-cumylazo)isobutyronitrile]
time to peak exotherm [1, 4]: 1.3 min
cure of the resin, in words [1]: very hard

CC(C)(C)N=NC(C)(C#N)C1CC1 (stereo not drawn) [Example XII, Alpha-tert-butylazo-alpha-cyclopropylpropionitrile]
time to peak exotherm ([1]; 180° F. (82.2° C.)): 3.3 min
peak exotherm ([1]; 212° F. (100° C.)): 420 ° F.
time to peak exotherm ([1]; 212° F. (100° C.)): 2.1 min
cure of the resin, in words [1]: very hard

CC(C)(C)N=NC(N)=O [Example XIII, tert.-butylazoformamide]
time to peak exotherm [1, 5]: 7.1 min
peak exotherm [1, 6]: 430 ° F.
time to peak exotherm [1, 6]: 5.9 min
time to peak exotherm [1, 7]: 4.5 min
cure of the resin, in words [1]: very hard

CC(C)(C)N=NC(=O)C(C)(C)C [Example XIX, Pivaloyl tert.-butyldiimide]
time to peak exotherm [1, 4]: 4.9 min
cure of the resin, in words [1]: very hard

CC(C)(C)N=NC(=O)c1ccccc1 [Example XX, Benzoyl tert.-butyldiimide]
time to peak exotherm [1, 4]: 10.0 min
cure of the resin, in words [1]: hard

CC(C)(C)N=NC1(C#N)CCCCC1 [IV, 1-tert.-butylazo-1-cyanocyclohexane]
cure of the resin, in words [1]: very hard

CC(C)(C)N=NC(C)(C#N)C(C)(C)C (stereo not shown) [IX, 2-tert.-butylazo-2-cyano-3,3-dimethylbutane]
peak exotherm ([1]; 212° F. (100° C.)): 430 ° F.
time to peak exotherm ([1]; 212° F. (100° C.)): 4.9 min
cure of the resin, in words [1]: very hard

CC1CC(C)(C)CC(C#N)(N=NC(C)(C)C)C1 (stereo not shown) [VIII, 1-tert.-butylazo-1-cyano-3,3,5-trimethylcyclohexane]
time to peak exotherm [1, 4]: 9.4 min
cure of the resin, in words [1]: very hard

CNC(=O)N=NC(C)(C)C [XIV, tert.-butylazo-N-methylformamide]
cure of the resin, in words [1]: very hard

CN(C)C(=O)N=NC(C)(C)C [XV, tert.-butylazo-N,N-dimethylformamide]
oxidation of iodide ion [3]: oxidized iodide ion to free iodine

COC(=O)CNC(=O)N=NC(C)(C)C [XVI, tert.-butylazo-N-carbmethoxymethylformamide]
oxidation of iodide ion [3]: oxidized iodide ion to free iodine
time to peak exotherm [1, 7]: 5.1 min
cure of the resin, in words [1]: very hard

CC(C)(C)N=NC(=O)NCC(=O)O [XVII, tert.-butylazo-N-carboxymethylformamide]
oxidation of iodide ion [3]: oxidized iodide ion to free iodine

CC(C)(N=NC(N)=O)c1ccccc1 [XVIII, Tert.-cumylazoformamide]
oxidation of iodide ion [3]: oxidized iodide ion to free iodine
time to peak exotherm [1, 7]: 6.0 min
cure of the resin, in words [1]: very hard

CC(C)(C)N=Nc1nc(N=NC(C)(C)C)nc(N=NC(C)(C)C)n1 [XXI, 2,4,6-Tri-(tert.-butylazo)-1,3,5-triazine]
oxidation of iodide ion [3]: oxidized iodide ion to free iodine

CC(C)(C)N=NC1=CCCCC1 [XXIII, 1(-tert.-butylazo)cyclohexene]
cure of the resin, in words [1]: gelled the unsaturated polyester-styrene resin of Example III at room temperature

CC(C)(C)N=NC1(C(N)=O)CCCCC1 [XXIV, 1-tert. butylazo-1-carbamylcyclohexane]
time to peak exotherm [1, 6]: 6.8 min

CC(C)(C)N=NC(C)(C)C(N)=O [XXV, 2-t-butylazo-2-carbamylpropane]
time to peak exotherm [1, 6]: 5.7 min
